According to PMC9251882:
Results are given in words; binding and its absence hold for the method and conditions named. In cells and extracts the contact can be indirect. Some binding calls cover weakened binding; strength is not graded here.

Protein sequences, listed by entry. Tags and fused reporters are not part of them. Residues count along the entry.
UniProt Q99755: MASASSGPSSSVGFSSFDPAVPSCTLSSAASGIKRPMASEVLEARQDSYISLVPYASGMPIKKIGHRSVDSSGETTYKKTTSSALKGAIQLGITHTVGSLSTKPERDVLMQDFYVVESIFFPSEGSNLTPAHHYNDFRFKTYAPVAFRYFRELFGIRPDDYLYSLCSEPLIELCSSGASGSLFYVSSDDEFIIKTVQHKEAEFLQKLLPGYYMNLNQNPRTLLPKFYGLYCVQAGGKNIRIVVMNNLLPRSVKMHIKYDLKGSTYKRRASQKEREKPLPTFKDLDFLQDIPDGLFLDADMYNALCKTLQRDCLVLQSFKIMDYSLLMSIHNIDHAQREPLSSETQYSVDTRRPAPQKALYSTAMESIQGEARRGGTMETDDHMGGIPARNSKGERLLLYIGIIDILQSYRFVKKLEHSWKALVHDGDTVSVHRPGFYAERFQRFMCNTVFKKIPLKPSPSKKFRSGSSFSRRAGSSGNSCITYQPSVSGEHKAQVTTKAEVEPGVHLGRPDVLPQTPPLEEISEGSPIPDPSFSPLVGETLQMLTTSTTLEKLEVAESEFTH
UniProt P10275: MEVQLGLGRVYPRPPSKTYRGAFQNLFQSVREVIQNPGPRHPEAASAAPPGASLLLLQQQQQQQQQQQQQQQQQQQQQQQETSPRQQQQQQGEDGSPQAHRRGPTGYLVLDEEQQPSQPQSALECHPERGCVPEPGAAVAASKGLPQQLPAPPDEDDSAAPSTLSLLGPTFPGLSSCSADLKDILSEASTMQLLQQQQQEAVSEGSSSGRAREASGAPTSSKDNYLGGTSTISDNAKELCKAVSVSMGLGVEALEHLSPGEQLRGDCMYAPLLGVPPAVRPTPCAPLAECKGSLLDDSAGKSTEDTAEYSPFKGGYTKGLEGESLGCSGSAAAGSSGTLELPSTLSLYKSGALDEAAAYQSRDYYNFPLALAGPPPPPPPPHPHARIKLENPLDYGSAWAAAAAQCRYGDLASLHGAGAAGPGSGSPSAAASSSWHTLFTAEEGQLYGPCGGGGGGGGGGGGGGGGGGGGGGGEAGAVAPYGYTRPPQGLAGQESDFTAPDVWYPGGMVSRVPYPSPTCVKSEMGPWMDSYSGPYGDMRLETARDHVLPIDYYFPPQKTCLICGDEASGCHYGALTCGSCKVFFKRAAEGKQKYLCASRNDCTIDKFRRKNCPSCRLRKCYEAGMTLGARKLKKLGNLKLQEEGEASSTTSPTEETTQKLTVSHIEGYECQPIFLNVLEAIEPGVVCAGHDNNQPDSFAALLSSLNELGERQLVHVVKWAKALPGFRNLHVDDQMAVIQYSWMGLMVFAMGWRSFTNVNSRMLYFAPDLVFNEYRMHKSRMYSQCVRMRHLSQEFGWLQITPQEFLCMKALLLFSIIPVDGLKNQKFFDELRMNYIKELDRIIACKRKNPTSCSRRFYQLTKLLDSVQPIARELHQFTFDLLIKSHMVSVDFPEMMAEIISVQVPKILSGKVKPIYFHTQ
UniProt P08637, residues 17-254: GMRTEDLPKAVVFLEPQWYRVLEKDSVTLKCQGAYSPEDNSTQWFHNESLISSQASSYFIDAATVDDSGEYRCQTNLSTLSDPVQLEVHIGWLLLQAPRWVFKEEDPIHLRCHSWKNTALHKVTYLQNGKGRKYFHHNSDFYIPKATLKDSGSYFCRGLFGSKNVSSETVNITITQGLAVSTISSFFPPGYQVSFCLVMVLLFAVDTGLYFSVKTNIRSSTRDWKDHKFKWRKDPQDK

Molecular target: phosphatidylinositol‐4‐phosphate 5‐kinase type‐1 alpha (human (endogenous in C4‐2)) (UniProt Q99755)
Assay: co-IP; C4‐2 cell lysate; antibody against PIP5K1α used to pull down the immune complexes, antibody to IgG as negative control; immunoblot with antibodies against FcγRIIIa and AR

binding	Substance
binds	androgen receptor (from UniProt P10275 1-920)
binds	low‐affinity immunoglobulin gamma Fc region receptor III‐A (from UniProt P08637 17-254)
